Source: PubChem BioAssay AID504744 (Drosophila RNAi Screening Center, 2011)

Aim: 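Identify dsRNAs that increase or decrease phospho-dAkt after insulin treatment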 (primary screen)
Cells: Drosophila Kc167 cells
Knock-down reagent: long dsRNA against Drosophila genes, 250 ng dsRNA per well of a 384-well plate
Timing: 3 days of knock-down, then overnight serum-free starvation before stimulation
Challenge: bovine insulin at 387 nM for 10 minutes after 12 h without serum
Measured: 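In-cell antibody fluorescence for phospho-dAkt in each well over DNA-dye signal, with log2 residuals expressed as z-scores adjusted for cell count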
Call rule: 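Hit in the insulin screen when the two-replicate mean z-score is more extreme than plus or minus 2.5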
The screen tested about 23,000 reagents; shown is a random part of those with a known target gene and a result. Over the whole deposit, 98 (0.43%) got an active call. 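Only hit calls are given; the phospho-dAkt signals, z-scores and hit direction were not deposited.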 Names joined by + are all predicted targets of the reagent. Reagent sequences are not shown.

The opening 9 entries as a preview:
Gene,dsRNA,Outcome
CG32450,DRSC11546,inactive
"Dcps (Decapping enzyme, scavenger)",DRSC12299,inactive
dpr14 (defective proboscis extension response 14),DRSC17767,inactive
CG5810,DRSC15880,inactive
CG5810,DRSC21921,inactive
Ggamma1 (G protein gamma subunit 1),DRSC07435,inactive
Atpalpha (Na pump alpha subunit),DRSC14119,inactive
CG31675,DRSC01825,inactive
lili (lilipod),DRSC14143,inactive

The listing, repeating the preview:
Gene,dsRNA,Outcome
CG32450,DRSC11546,inactive
"Dcps (Decapping enzyme, scavenger)",DRSC12299,inactive
dpr14 (defective proboscis extension response 14),DRSC17767,inactive
CG5810,DRSC15880,inactive
CG5810,DRSC21921,inactive
Ggamma1 (G protein gamma subunit 1),DRSC07435,inactive
Atpalpha (Na pump alpha subunit),DRSC14119,inactive
CG31675,DRSC01825,inactive
lili (lilipod),DRSC14143,inactive
Nep7 (Neprilysin 7),DRSC15830,inactive
gro (groucho),DRSC16962,inactive
fred (friend of echinoid),DRSC00349,inactive
fred (friend of echinoid),DRSC00599,inactive
fred (friend of echinoid),DRSC00601,inactive
fred (friend of echinoid),DRSC00602,inactive
fred (friend of echinoid),DRSC21906,inactive
Ccdc85,DRSC00501,inactive
CG32453,DRSC21673,inactive
CG10993,DRSC19362,inactive
CG34028,DRSC17614,inactive
Atg16 (Autophagy-related 16),DRSC15052,inactive
Atg16 (Autophagy-related 16),DRSC15300,inactive
Atg16 (Autophagy-related 16),DRSC15375,inactive
Uch-L5R (Uch-L5-related),DRSC19825,inactive
CG14445,DRSC17938,inactive
Gbp1 (Growth-blocking peptide 1),DRSC06592,inactive
"betaNACtes6 (Nascent-associated complex beta-subunit-like, testis 6)",DRSC22925,inactive
CG4597,DRSC10432,inactive
CG34345,DRSC02126,inactive
CG15923,DRSC15129,inactive
Tis11 (Tis11 zinc finger protein),DRSC20293,inactive
mys (myospheroid),DRSC18799,inactive
e(y)2b (enhancer of yellow 2b),DRSC12556,inactive
Tsf3 (Transferrin 3),DRSC06849,inactive
prtp (pretaporter),DRSC19804,inactive
prtp (pretaporter),DRSC22494,inactive
Or46a (Odorant receptor 46a),DRSC07489,inactive
Or46a (Odorant receptor 46a),DRSC07490,inactive
Or46a (Odorant receptor 46a),DRSC21590,inactive
CG33784,DRSC12764,inactive
CG2617,DRSC02712,inactive
CG32986,DRSC02509,inactive
Grip71,DRSC02042,inactive
CG31268,DRSC13203,inactive
CG5565,DRSC00690,inactive
CG6333,DRSC10626,inactive
crol (crooked legs),DRSC03514,inactive
crol (crooked legs),DRSC21348,inactive
CG9330,DRSC11066,inactive
CG6695,DRSC16098,inactive
cal1 (chromosome alignment defect 1),DRSC15725,inactive
CG9471,DRSC16499,inactive
CG33309,DRSC01421,inactive
Sas-4 (Spindle assembly abnormal 4),DRSC12505,inactive
Sap-r (Saposin-related),DRSC16849,inactive
Sap-r (Saposin-related),DRSC21916,inactive
Rpn6 (Regulatory particle non-ATPase 6),DRSC07541,inactive
CG5191,DRSC15733,inactive
CG5191,DRSC15734,inactive
CG5191,DRSC21559,inactive
Not1,DRSC06787,inactive
Not1,DRSC06794,inactive
CG32454,DRSC11652,inactive
Dad,DRSC16642,inactive
dop (drop out),DRSC10655,inactive
CG5050,DRSC02807,inactive
CG17217,DRSC02592,inactive
cac (cacophony),DRSC19743,inactive
cac (cacophony),DRSC20354,inactive
Ubr1 (Ubr1 ubiquitin ligase),DRSC20148,inactive
CG7943,DRSC16351,inactive
Taf8 (TBP-associated factor 8),DRSC20363,inactive
CG12017,DRSC08225,inactive
CG3032,DRSC18266,inactive
Pten (Phosphatase and tensin homolog),DRSC03402,inactive
CG10996,DRSC19363,inactive
CG32679,DRSC17644,inactive
Hr78 (Hormone-receptor-like in 78),DRSC11866,inactive
stl (stall),DRSC04396,inactive
CG11843,DRSC14401,inactive
Arts + Apl,DRSC10349,inactive
CG13589,DRSC04225,inactive
His4:CG33883 + His4:CG33889 + His4:CG33899 + 20 more,DRSC21268,inactive
CG7460,DRSC10850,inactive
CG8173,DRSC20088,inactive
sigmar (salivary glands marred),DRSC04449,inactive
Serinc (Serine incorporator),DRSC11296,inactive
Teh3 (tipE homolog 3),DRSC08537,inactive
pix (pixie),DRSC10533,inactive
NitFhit (Nitrilase and fragile histidine triad fusion protein),DRSC08680,inactive
per (period),DRSC18818,inactive
side-V (sidestep V),DRSC04188,inactive
side-V (sidestep V),DRSC04189,inactive
side-V (sidestep V),DRSC22266,inactive
fru (fruitless),DRSC16951,inactive
fru (fruitless),DRSC16952,inactive
fru (fruitless),DRSC16953,inactive
fru (fruitless),DRSC21600,inactive
CG13898,DRSC08368,inactive
CG3191,DRSC18530,inactive
Dbp21E2 (DEAD box protein 21E2),DRSC00616,inactive
CG8298,DRSC07138,inactive
RpL18 (Ribosomal protein L18),DRSC11016,inactive
RpL18 (Ribosomal protein L18),DRSC22323,inactive
CG1983,DRSC15410,inactive
OtopLc (Otopetrin-like c),DRSC18082,inactive
OtopLc (Otopetrin-like c),DRSC18083,inactive
OtopLc (Otopetrin-like c),DRSC18132,inactive
CG34242,DRSC09185,inactive
"Lamtor5 (Late endosomal/lysosomal adaptor, MAPK and MTOR activator 5)",DRSC18491,inactive
CG3999,DRSC15534,inactive
Msr-110,DRSC11227,inactive
Mppe (Metallophosphoesterase),DRSC07296,inactive
CR40450 + CG32767,DRSC18387,inactive
Nf-YB (Nuclear factor Y-box B),DRSC02057,inactive
CG14687,DRSC14910,inactive
caly (calypso),DRSC07182,inactive
Tom70 (Translocase of outer membrane 70),DRSC02990,inactive
CG33775,DRSC05353,inactive
"SmydA-8 (SET and MYND domain containing, arthropod-specific, member 8)",DRSC18797,inactive
"SmydA-8 (SET and MYND domain containing, arthropod-specific, member 8)",DRSC22064,inactive
"SmydA-8 (SET and MYND domain containing, arthropod-specific, member 8)",DRSC22263,inactive
CG34382,DRSC08999,inactive
CG34382,DRSC10166,inactive
CG34382,DRSC10167,inactive
ovm + CG31975,DRSC22146,inactive
Pepck1 (Phosphoenolpyruvate carboxykinase 1),DRSC07505,inactive
Jra (Jun-related antigen),DRSC07447,inactive
mRpS30 (mitochondrial ribosomal protein S30),DRSC20107,inactive
Ars2 (Arsenic resistance protein 2),DRSC04893,inactive
Syt4 (Synaptotagmin 4),DRSC12606,inactive
CG10959,DRSC17769,inactive
Ak2 (Adenylate kinase 2),DRSC04043,inactive
CG8539,DRSC10988,inactive
CG8539,DRSC21798,inactive
CG32983,DRSC22367,inactive
CG14316,DRSC14795,inactive
CG7567,DRSC16258,inactive
Cdc2rk (Cdc2-related kinase),DRSC07590,inactive
CG3819,DRSC10378,inactive
pinta,DRSC14698,inactive
"Pka-C2 (Protein kinase, cAMP-dependent, catalytic subunit 2)",DRSC16790,inactive
Khc-73 (Kinesin heavy chain 73),DRSC07449,inactive
cathD (cathepsin D),DRSC07588,inactive
Ir48b (Ionotropic receptor 48b),DRSC06320,inactive
CG15212,DRSC10212,inactive
CG9525,DRSC03249,inactive
Hibch (3-hydroxyisobutyryl-CoA hydrolase),DRSC15705,inactive
PolE4 (DNA polymerase epsilon subunit 4),DRSC04105,inactive
Gr93c (Gustatory receptor 93c),DRSC14587,inactive
Pdp1 (PAR-domain protein 1),DRSC08896,inactive
Pdp1 (PAR-domain protein 1),DRSC08897,inactive
Pdp1 (PAR-domain protein 1),DRSC11251,inactive
CG33017,DRSC06573,inactive
CG33017,DRSC06574,inactive
Inx5 (Innexin 5),DRSC20051,inactive
CG11703,DRSC14356,inactive
